Data taken from PubChem BioAssay AID2551 (National Center for Advancing Translational Sciences (NCATS), 2010).
The campaign covered roughly 310,000 compounds. About 17,000 (5.5%) were called active. Inconclusive means that the source gave no clear call. Such entries were picked first, then a sample of the others. Calls follow the shape of the dose curve; as a rule, active = well fitted inhibition curve with a large enough effect; inconclusive = small, poorly fitted or top-dose-only effect, or effect the other way; inactive = no such curve, though single readings can be large or run the other way. A potency beside an inconclusive call is a rough fit, not a confirmed value.

Chains of the proteins cited; added tags and fusions are not shown. Lines headed by an entry give the natural chain unless they say otherwise; changes in a name come on top.
UniProt P51450: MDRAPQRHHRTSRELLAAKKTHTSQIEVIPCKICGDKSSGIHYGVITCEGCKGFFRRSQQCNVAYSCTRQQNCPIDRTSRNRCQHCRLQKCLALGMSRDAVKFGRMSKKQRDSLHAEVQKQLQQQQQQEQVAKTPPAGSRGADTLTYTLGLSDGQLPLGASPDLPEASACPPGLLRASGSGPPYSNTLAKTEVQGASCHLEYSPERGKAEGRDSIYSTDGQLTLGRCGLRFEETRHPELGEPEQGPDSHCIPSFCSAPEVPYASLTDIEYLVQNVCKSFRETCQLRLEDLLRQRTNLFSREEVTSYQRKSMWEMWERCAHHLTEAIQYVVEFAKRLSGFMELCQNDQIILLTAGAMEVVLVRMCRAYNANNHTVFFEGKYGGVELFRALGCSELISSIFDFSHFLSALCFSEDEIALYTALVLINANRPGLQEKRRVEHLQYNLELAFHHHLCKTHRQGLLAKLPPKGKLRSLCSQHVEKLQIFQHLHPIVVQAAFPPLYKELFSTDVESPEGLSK

molecular target: Nuclear receptor ROR-gamma (Mus musculus) (UniProt P51450); assay: qHTS for inhibitors of ROR gamma transcriptional activity; conditions: Drosophila S2 Gal4-RORgamma UAS-luciferase reporter, 20 h; activity change, negative = inhibition: at 53.6 µM (top of the series); also: nearly all actives have a fitted effect of over 60% in size
Procedure, shortened: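 Read-out: Photinus luciferase luminescence; inhibitors lower reporter signal. Insect Schneider cells with Gal4-ROR gamma fusion under metallothionein promoter, UAS reporter; 700 uM final copper sulfate induction, 20 hr, ambient temperature.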
% is scaled to controls: 0 for no effect and ±100 for the full control effect; potency is read from the fitted curve at half-maximal effect.

| SMILES | Potency | activity change, negative = inhibition |
| --- | --- | --- |
| O=[N+]([O-])c1ccc(-c2ccc(/C=N/O)o2)cc1 | inactive | – |
| Cc1ccc(NC(=O)c2cccc(N3C(=O)CCC3=O)c2)nc1 | inconclusive: 2 µM [inhibitor, partial curve] | – |
| COc1cc(CNc2ccc(S(N)(=O)=O)cc2)ccc1OCC(=O)NC1CCCCC1 | inactive | – |
| CCc1ccc(OCC(=O)Nc2ccc(-c3cc4ccccc4oc3=O)c(OC)c2)cc1 | inconclusive: 7.08 µM [activator, partial curve] | – |
| CCCOc1ccc(-c2cc(C(F)(F)F)c(C#N)c(SCC(=O)O)n2)cc1 | inconclusive: 35.5 µM [activator, single point] | – |
| Nc1c(N)c2ccccc2oc1=O | inactive | – |
| S=c1[nH]c(-c2ccccc2)cn1/N=C/c1cccnc1 | inconclusive: 15.8 µM [inhibitor, partial curve] | – |
| CCOC(=O)c1c(-c2ccccc2)csc1NC(=O)c1ccc(S(=O)(=O)N2CCOCC2)cc1 | inactive | – |
| COc1cc2cc(C(c3nnnn3C3CCCC3)N3CCc4ccccc43)c(=O)[nH]c2cc1OC (centres undefined) | inactive | – |
| CSCC[C@H](NC(=O)c1ccc(Cl)c(S(=O)(=O)N2CCCC2)c1)c1nc2ccccc2[nH]1 | inconclusive: 5.01 µM [activator, single point] | – |
| CSc1ccccc1NC(=O)CN(C)CC(=O)NCc1ccccc1 | inactive | – |
| CC(NC(=O)/C(C#N)=C/c1cn(-c2ccccc2)nc1-c1ccc(F)cc1)c1ccccc1 (centres undefined) | inactive | – |
| COc1ccc(NC(=O)COC(=O)CCNS(=O)(=O)c2ccccc2)cc1OC | inactive | – |
| C=CCC1(CC=C)CCCN1C(=O)c1cc(COc2cccc(OC)c2)on1 | inconclusive: 28.2 µM [activator, single point] | – |
| Cc1noc(-c2ccc(CSCCC(=O)O)cc2)c1NC(=O)OC(C)c1ccccc1Cl (centres undefined) | inactive | – |
| O=C(Nc1nccs1)c1ccc(NC(=O)c2ccco2)cc1 | inconclusive: 5.62 µM [activator, partial curve] | – |
| O=C(Nc1nnc(S(=O)(=O)N2CCCCCC2)s1)c1cccc(Br)c1 | inconclusive: 12.6 µM [activator, partial curve] | – |
| CCOc1cc(/C=N/Nc2nnc(C)n2N)ccc1OC(C)=O | active: 11.2 µM | – |
| O=C(NC(=S)Nc1ncccn1)c1ccc(Cl)cc1Cl | active: 7.08 µM | – |
| CCN(C(=O)COC(=O)c1cccnc1Nc1cccc(C(F)(F)F)c1)C1CCS(=O)(=O)C1 (centres undefined) | inconclusive: 2.82 µM [activator, full curve] | – |
| CC(C)=CC(=O)N1CCCC(N2CCN(c3ccc(F)cc3)CC2)C1 (centres undefined) | – | inactive: -33.7% [at 1.91 µM] |
| COc1ccc2nc(N=NC3=C(O)CC(C)(C)CC3=O)sc2c1 | active: 11.2 µM | – |
| Cc1ccc(NC(=O)C2=CC(c3ccc(C)cc3)=NS(=O)(=O)N2C)cc1 | inconclusive: 31.6 µM [activator, single point] | – |
| OC1CCN(Cc2ccc(OCc3ccccc3)cc2)CC1 | active: 10 µM | – |
| O=C(Nc1ccc(N2CCOCC2)cc1)c1cnsn1 | active: 2 µM | – |

An excerpt from above in order of heavy-atom count, high to low.

| SMILES | Potency | activity change, negative = inhibition |
| --- | --- | --- |
| COc1cc2cc(C(c3nnnn3C3CCCC3)N3CCc4ccccc43)c(=O)[nH]c2cc1OC (centres undefined) | inactive | – |
| CCOC(=O)c1c(-c2ccccc2)csc1NC(=O)c1ccc(S(=O)(=O)N2CCOCC2)cc1 | inactive | – |
| CCN(C(=O)COC(=O)c1cccnc1Nc1cccc(C(F)(F)F)c1)C1CCS(=O)(=O)C1 (centres undefined) | inconclusive: 2.82 µM [activator, full curve] | – |
| CCc1ccc(OCC(=O)Nc2ccc(-c3cc4ccccc4oc3=O)c(OC)c2)cc1 | inconclusive: 7.08 µM [activator, partial curve] | – |
| COc1cc(CNc2ccc(S(N)(=O)=O)cc2)ccc1OCC(=O)NC1CCCCC1 | inactive | – |
| COc1ccc(NC(=O)COC(=O)CCNS(=O)(=O)c2ccccc2)cc1OC | inactive | – |
| C=CCC1(CC=C)CCCN1C(=O)c1cc(COc2cccc(OC)c2)on1 | inconclusive: 28.2 µM [activator, single point] | – |
| CCCOc1ccc(-c2cc(C(F)(F)F)c(C#N)c(SCC(=O)O)n2)cc1 | inconclusive: 35.5 µM [activator, single point] | – |
| Cc1ccc(NC(=O)C2=CC(c3ccc(C)cc3)=NS(=O)(=O)N2C)cc1 | inconclusive: 31.6 µM [activator, single point] | – |
| CC(C)=CC(=O)N1CCCC(N2CCN(c3ccc(F)cc3)CC2)C1 (centres undefined) | – | inactive: -33.7% [at 1.91 µM] |
| CCOc1cc(/C=N/Nc2nnc(C)n2N)ccc1OC(C)=O | active: 11.2 µM | – |
| OC1CCN(Cc2ccc(OCc3ccccc3)cc2)CC1 | active: 10 µM | – |
| O=C(NC(=S)Nc1ncccn1)c1ccc(Cl)cc1Cl | active: 7.08 µM | – |
| O=[N+]([O-])c1ccc(-c2ccc(/C=N/O)o2)cc1 | inactive | – |
| Nc1c(N)c2ccccc2oc1=O | inactive | – |

Remaining list, next part:

| SMILES | Potency | activity change, negative = inhibition |
| --- | --- | --- |
| CC(=O)/C=C\C1[C@]2(C)CCCC(C)(C)C2CC[C@@]1(C)O (some centres undefined) | inactive | – |
| CCOc1cc2[nH]c(=S)n(Cc3ccc(C)o3)c(=O)c2cc1OCC | active: 7.08 µM | – |
| CNc1ccc(/C=C(\C#N)C(=O)Nc2ccccn2)cc1[N+](=O)[O-] | inactive | – |
| Cc1ccc(-c2nnc(-c3ccc(NC(=O)c4ccco4)cc3)o2)cc1 | inconclusive: 3.55 µM [activator, single point] | – |
| Cc1ccc2ncccc2c1NS(=O)(=O)c1ccccc1 | inconclusive: 4.47 µM [activator, partial curve, poor fit] | – |
| FC(F)Sc1nnc(-c2cccs2)n1-c1ccccc1 | inconclusive: 20 µM [activator, partial curve, poor fit] | – |
| CCOc1ccc(-c2csc3ncn(-c4ccc(OC)cc4)c(=O)c23)cc1 | inconclusive: 8.91 µM [activator, partial curve] | – |
| CCOC(=O)N1CCN(C(=O)c2ccc3c(=O)n(CCc4ccc(OC)c(OC)c4)c(=O)[nH]c3c2)CC1 | inactive | – |
| O=C(c1cc2ccccc2o1)c1cccs1 | inconclusive: 1.58 µM [activator, full curve, poor fit] | – |
| CC(Cl)C(=O)Nc1c2c(nn1-c1ccccc1)CSC2 (centres undefined) | inactive | – |
| CCCCCCn1cnc2c(c1=O)c1nc3ccccc3nc1n2/N=C/c1ccco1 | inconclusive: 15.8 µM [inhibitor, single point] | – |
| O=C(CSc1ncccc1C(=O)O)c1ccc2ccccc2c1 | active: 11.2 µM | – |
| Cc1nc(NC(=O)/C=C/c2ccccc2)sc1C(=O)Nc1ccccc1Cl | active: 15.8 µM | – |
| COc1ccc(C(C)NC(=O)c2ccoc2C)cc1OC (centres undefined) | inconclusive: 14.1 µM [activator, single point] | – |
| CN=c1scc(-c2ccccc2F)n1/N=C(\C)c1cccnc1 | inconclusive: 0.005 µM [activator, full curve, poor fit] | – |
| Cc1ccc(S(=O)(=O)N(C)/N=C/c2ccc(C(=O)O)cc2)cc1 | inconclusive: 28.2 µM [activator, single point] | – |
| Oc1ccccc1/C=N/NC(=S)NC1CC2CCC1C2 (centres undefined) | active: 6.31 µM | – |
| Cc1ccc(-c2csc(CC(N)=O)n2)cc1 | inconclusive: 11.2 µM [activator, partial curve] | – |
| CCOc1ccc(/C=N/NC(=O)c2csc(C)c2C)c(OCC)c1 | active: 12.6 µM | – |
| O=C(CSC1=NC(=O)C(Cc2ccccc2)C(=O)N1)Nc1ncccn1 (centres undefined) | inactive | – |
| O=C(CCCN1C(=O)/C(=C/c2ccco2)SC1=S)Nc1ccccc1 | inconclusive: 10 µM [inhibitor, partial curve, poor fit] | – |
| CC(C)(C)OC(=O)CNC(=O)c1nc[nH]c1C(=O)NCc1ccc(CNC(=O)OC(C)(C)C)cc1 | inconclusive: 35.5 µM [inhibitor, single point] | – |
| COc1cc2c(C(=O)N3CCOCC3)c(CSc3ccccc3)n(C)c2cc1Br | inconclusive: 2 µM [inhibitor, full curve] | – |
| CC(C)Cc1ccc(CN2CCCC(NC(=O)c3cccc(-n4cnnc4)c3)C2)cc1 (centres undefined) | inconclusive: 25.1 µM [activator, single point] | – |
| CCOc1ccc(-c2ncncc2-c2ccccc2OC)c(O)c1 | inactive | – |

| SMILES | Potency | activity change, negative = inhibition |
| --- | --- | --- |
| N#Cc1ccc(NC(=O)Nc2ccc(Oc3ccc(NC(=O)Nc4ccc(C#N)cc4)cc3)cc2)cc1 | inconclusive: 31.6 µM [inhibitor, single point] | – |
| COc1ccc(-c2cc(=O)c3c(OC)c(OC)c(OC)c(OC)c3o2)cc1OC | inconclusive: 11.2 µM [activator, single point] | – |
| N#C/C(=C/c1cn(CC(=O)O)c2ccccc12)C(=O)NCc1ccccc1 | inactive | – |
| O=C(NC1CCCc2ccccc21)C1CCN(S(=O)(=O)N2CCCCCC2)CC1 (centres undefined) | inconclusive: 11.2 µM [activator, partial curve] | – |
| CC(=O)N1c2ccc(S(=O)(=O)NCC3CCC(C(=O)N(C)Cc4ccccc4)CC3)cc2CC1C (centres undefined) | inconclusive: 17.8 µM [activator, single point] | – |
| N#CC(c1ccc(Cl)cc1)c1nc2ccccc2nc1C(F)(F)F (centres undefined) | inconclusive: 5.62 µM [activator, single point] | – |
| O=C(NCc1ccco1)c1ccc(Oc2ccccc2)cc1 | inconclusive: 17.8 µM [activator, partial curve] | – |
| Cc1ccc(C(=O)NCCc2cccs2)cc1 | inconclusive: 4.47 µM [inhibitor, partial curve, poor fit] | – |
| CCOCCCNC(=O)c1ccc2c(c1)ncn2-c1ccc(CC)cc1 | inactive | – |
| CSc1ccc(CNc2cccc3ccccc23)cc1 | inconclusive: 10 µM [activator, partial curve, poor fit] | – |
| CCC(=O)Nc1cccc(-n2nnnc2SCC(=O)NCc2ccco2)c1 | inconclusive: 3.16 µM [activator, full curve, poor fit] | – |
| COc1ccc(C(=O)Nc2ccccc2C(=O)N2CCCCCC2)cc1OC | inactive | – |
| COc1ccc(C(CC(=O)c2ccccc2)S(=O)(=O)c2ccc(C)cc2)cc1 (centres undefined) | inactive | – |
| O=c1c(Cl)nc2cc(Cl)ccc2n1CCNc1ncc(C(F)(F)F)cc1Cl | active: 11.2 µM | – |
| CC(C)CNC(CC(=O)Nc1cccc([N+](=O)[O-])c1)C(=O)O (centres undefined) | inactive | – |
| Cc1ccc(C)c(CN2C(=O)COc3ccc(C(=O)c4ccccc4C(=O)O)cc32)c1 | inconclusive: 11.2 µM [activator, partial curve] | – |
| Cc1ccc(-c2nnc(Cc3ccc(Cl)cc3)o2)cc1 | inconclusive: 1.26 µM [activator, full curve, poor fit] | – |
| COc1ccc(N(/N=C2\Sc3ccccc3C2=O)C(C)=O)cc1 | inconclusive: 0.178 µM [activator, full curve, poor fit] | – |
| COc1cc(/C=C/c2nc3ccccc3c(=O)[nH]2)ccc1OC(F)F | inactive | – |
| CC(=O)Nc1ccc(Nc2nc(-c3sc(NC(C)=O)nc3C)cs2)cc1 | inconclusive: 12.6 µM [activator, partial curve] | – |
| Cc1nn(C)cc1/C=N/NC(=O)C1(O)c2ccccc2-c2ccccc21 | inactive | – |
| COc1ccc(C2CC(=O)c3cnn(-c4nc(C)cc(C)n4)c3C2)cc1 (centres undefined) | inconclusive: 3.98 µM [inhibitor, partial curve] | – |
| COc1ccc2[nH]c(C(=O)N3CCCN(Cc4ccc(F)cc4)CC3)cc2c1 | inactive | – |
| COc1ccc(N=c2ssnc2Cl)cc1 | inconclusive: 35.5 µM [inhibitor, single point] | – |
